Experimental findings from PMC8062039 are described below.

These are yes or no findings as the source states them, for the method shown. Binding seen in cells or lysates may run through a third protein. Sequences can lack the tags named with a protein.

This assay deals with T1, FLAG tagged TBC1D24 (UniProt Q9ULP9).
T1 sequence: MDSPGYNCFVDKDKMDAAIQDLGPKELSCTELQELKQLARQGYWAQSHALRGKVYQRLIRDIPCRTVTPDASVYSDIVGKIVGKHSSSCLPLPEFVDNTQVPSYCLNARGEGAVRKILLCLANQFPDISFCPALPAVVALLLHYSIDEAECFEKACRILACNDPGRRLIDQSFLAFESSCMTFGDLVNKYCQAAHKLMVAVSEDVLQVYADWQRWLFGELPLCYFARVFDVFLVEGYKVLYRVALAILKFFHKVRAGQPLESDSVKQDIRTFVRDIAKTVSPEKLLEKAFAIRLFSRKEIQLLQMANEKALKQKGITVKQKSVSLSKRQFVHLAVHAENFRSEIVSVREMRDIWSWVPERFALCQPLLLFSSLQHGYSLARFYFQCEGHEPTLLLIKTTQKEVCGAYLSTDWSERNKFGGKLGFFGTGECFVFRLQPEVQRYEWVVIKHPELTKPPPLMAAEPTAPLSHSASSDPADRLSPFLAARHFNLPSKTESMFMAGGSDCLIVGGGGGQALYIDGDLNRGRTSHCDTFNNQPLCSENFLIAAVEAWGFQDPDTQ
The experiment in a line: co-IP; Neuro2a cells transfected with FLAG tagged TBC1D24, lysed 48 hrs later in NETN buffer (20 mM Tris-HCl pH 8.0, 1 mM EDTA, 100 mM NaCl, 0.5% NP-40); anti-FLAG antibody or control rabbit IgG on Protein G Sepharose, overnight at 4°C; washed four times with NETN200 (200 mM NaCl); blots for Impdh, Ctps and FLAG.

As to “cytidine-5'-triphosphate synthase (Ctps) (mouse (endogenous in Neuro2a))”, the binding result is on record as “no binding”.
